Experimental data: PubChem BioAssay AID504791 (Drosophila RNAi Screening Center, 2011)

Screen: 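Genes whose knock-down strengthens or weakens small-RNA reporter silencing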 (primary screen)
Cell system: Drosophila S2-derived reporter cells
Reagents: long dsRNA against Drosophila genes, about 150-250 ng dsRNA per well (siRNA assay); about 80-120 ng (miRNA assay)
Duration: about 5 days (siRNA assay); about 4 days (miRNA assay)
Challenge: copper sulfate induction of reporters: 25 µM (siRNA assay); 200 mM stated (miRNA assay), 1-2 days before reading
Detection: 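Per-well ratio of Renilla over firefly light, expressed relative to that plate's average ratio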
Units: stable assay Renilla, run 1 in luminescence; stable assay firefly, run 1 in luminescence
Rule for the call: 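a well was a first-pass pick when its plate-scaled ratio rose above 1.5 (siRNA assay) or 1.6 (miRNA assay), or dropped below 0.6; a gene counted only if two separate dsRNAs agreed on retest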
In all, the deposit lists about 23,000 reagents; below is an unselected part of those that have a named target and a result. Of all reagents, 199 (0.86%) got an active call. 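Plate-scaled ratios behind the calls are not deposited; printed light signals are raw; many rows marked increased or decreased are still called inactive.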 Reagent sequences are not shown. The record does not give: the direction of the score.

Against CG12128 [DRSC06104], the entry reads stable assay Renilla, run 1 = 7535; stable assay firefly, run 1 = 4.42e5; inactive.
With knock-down of CG14414 [DRSC19599] the results were stable assay Renilla, run 1 = 5403; stable assay firefly, run 1 = 4.39e5; inactive.
With knock-down of tey (teyrha-meyrha) [DRSC11042], the screen gave stable assay Renilla, run 1 = 5944; stable assay firefly, run 1 = 4.92e5; inactive.
tey (teyrha-meyrha) [DRSC21709] gave stable assay Renilla, run 1 = 10115; stable assay firefly, run 1 = 6.05e5; inactive.
With knock-down of CG13050 [DRSC09931], the record shows stable assay Renilla, run 1 = 6799; stable assay firefly, run 1 = 3.82e5; inactive.
After knock-down of Drsl2 (Drosomycin-like 2) [DRSC08160] the results were stable assay Renilla, run 1 = 5382; stable assay firefly, run 1 = 4.40e5; inactive.
CG12448 [DRSC01967] gave stable assay Renilla, run 1 = 6982; stable assay firefly, run 1 = 3.22e5; inactive.
Silencing of eater [DRSC15969] came out at: stable assay Renilla, run 1 = 3436; stable assay firefly, run 1 = 3.18e5; inactive.
Against eater [DRSC22254], the entry reads stable assay Renilla, run 1 = 10082; stable assay firefly, run 1 = 8.51e5; inactive.
Depletion of CG34126 [DRSC02726] resulted in: stable assay Renilla, run 1 = 9117; stable assay firefly, run 1 = 6.11e5; inactive.
CG34126 [DRSC22079] gave stable assay Renilla, run 1 = 9326; stable assay firefly, run 1 = 6.43e5; inactive.
CG17304 (retired record) [DRSC15222] gave stable assay Renilla, run 1 = 5967; stable assay firefly, run 1 = 2.68e5; inactive.
For CG17304 (retired record) [DRSC23250], the entry reads stable assay Renilla, run 1 = 5315; stable assay firefly, run 1 = 3.45e5; inactive.
CG12259 [DRSC14486] gave stable assay Renilla, run 1 = 6747; stable assay firefly, run 1 = 3.86e5; inactive.
Against CG12259 [DRSC23281], the entry reads stable assay Renilla, run 1 = 3743; stable assay firefly, run 1 = 3.24e5; inactive.

2 entries from above, showing only “stable assay firefly, run 1”.
CG17304 (retired record) [DRSC15222]	2.68e5
CG17304 (retired record) [DRSC23250]	3.45e5

The results go on:
For CG4951 [DRSC15682], the entry reads stable assay Renilla, run 1 = 7711; stable assay firefly, run 1 = 3.61e5; inactive.
With knock-down of CG13193 [DRSC06318], the screen gave stable assay Renilla, run 1 = 5531; stable assay firefly, run 1 = 2.58e5; inactive.
For trk (trunk) [DRSC03625] the deposit lists stable assay Renilla, run 1 = 7795; stable assay firefly, run 1 = 3.60e5; inactive.
Against CG16813 [DRSC02520], the entry reads stable assay Renilla, run 1 = 6704; stable assay firefly, run 1 = 3.25e5; inactive.
Against CG10467 [DRSC09728], the entry reads stable assay Renilla, run 1 = 5699; stable assay firefly, run 1 = 3.77e5; inactive.
With knock-down of CG13409 [DRSC14585] the results were stable assay Renilla, run 1 = 7095; stable assay firefly, run 1 = 3.79e5; inactive.
lncRNA:Hsromega (Heat shock RNA omega) [DRSC22875] showed stable assay Renilla, run 1 = 4307; stable assay firefly, run 1 = 5.02e5; inactive.
RhoGAP93B (Rho GTPase activating protein at 93B) [DRSC15488] showed stable assay Renilla, run 1 = 7822; stable assay firefly, run 1 = 4.19e5; inactive.
CG3014 [DRSC15458] scored stable assay Renilla, run 1 = 7267; stable assay firefly, run 1 = 3.95e5; inactive.
For neur (neuralized) [DRSC17013], the values are stable assay Renilla, run 1 = 9218; stable assay firefly, run 1 = 4.43e5; inactive.
For dsx-c73A (doublesex cognate 73A) [DRSC09435], the entry reads stable assay Renilla, run 1 = 4603; stable assay firefly, run 1 = 3.23e5; inactive.
For dsx-c73A (doublesex cognate 73A) [DRSC09914] the deposit lists stable assay Renilla, run 1 = 7950; stable assay firefly, run 1 = 4.73e5; inactive.
Silencing of dsx-c73A (doublesex cognate 73A) [DRSC10429] gave: stable assay Renilla, run 1 = 7744; stable assay firefly, run 1 = 3.55e5; inactive.
